# Assay: Deodorization test in sealed container with H2S-impregnated sponge; changes in H2S concentration with time
# [1] = ozone gas supplied for five minutes, graph (B)
smiles,measurement,setting,value
"O=[O+][O-] [ozone gas, ozone]",time after which the concentration of H2S returned to substantially the original state,[1],40 min
same,time for which the concentration of H2S (odor) was lowered,[1],about 20 minutes
same,concentration of H2S (odor),"ozone gas supplied into sealed container for five minutes, FIG. 5 graph (B)",lowered desirably

# Source: patent US6485685B1, “Purifying agent, apparatus and method for forming purifying agent, and purifying method using the agent” (Toyota Jidosha Kabushiki Kaisha, priority 1997, dated 2002)
